# In PubChem BioAssay (EPA / NIEHS):
# Protein sequences, listed by entry. Tags and fused reporters are not part of them. Lines headed by an entry give the natural chain unless they say otherwise; changes in a name come on top.
# UniProt P51878: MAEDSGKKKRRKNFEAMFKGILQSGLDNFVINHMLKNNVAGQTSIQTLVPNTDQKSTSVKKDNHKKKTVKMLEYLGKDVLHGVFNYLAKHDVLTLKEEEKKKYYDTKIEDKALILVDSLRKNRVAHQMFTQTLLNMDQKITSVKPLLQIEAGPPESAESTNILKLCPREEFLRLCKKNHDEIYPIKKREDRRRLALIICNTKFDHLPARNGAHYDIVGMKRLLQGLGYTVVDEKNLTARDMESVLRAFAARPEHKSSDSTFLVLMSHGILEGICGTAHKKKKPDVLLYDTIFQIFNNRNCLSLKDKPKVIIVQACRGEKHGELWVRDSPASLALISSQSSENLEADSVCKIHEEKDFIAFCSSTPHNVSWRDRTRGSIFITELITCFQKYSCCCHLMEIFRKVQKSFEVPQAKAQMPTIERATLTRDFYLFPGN
# UniProt P10275: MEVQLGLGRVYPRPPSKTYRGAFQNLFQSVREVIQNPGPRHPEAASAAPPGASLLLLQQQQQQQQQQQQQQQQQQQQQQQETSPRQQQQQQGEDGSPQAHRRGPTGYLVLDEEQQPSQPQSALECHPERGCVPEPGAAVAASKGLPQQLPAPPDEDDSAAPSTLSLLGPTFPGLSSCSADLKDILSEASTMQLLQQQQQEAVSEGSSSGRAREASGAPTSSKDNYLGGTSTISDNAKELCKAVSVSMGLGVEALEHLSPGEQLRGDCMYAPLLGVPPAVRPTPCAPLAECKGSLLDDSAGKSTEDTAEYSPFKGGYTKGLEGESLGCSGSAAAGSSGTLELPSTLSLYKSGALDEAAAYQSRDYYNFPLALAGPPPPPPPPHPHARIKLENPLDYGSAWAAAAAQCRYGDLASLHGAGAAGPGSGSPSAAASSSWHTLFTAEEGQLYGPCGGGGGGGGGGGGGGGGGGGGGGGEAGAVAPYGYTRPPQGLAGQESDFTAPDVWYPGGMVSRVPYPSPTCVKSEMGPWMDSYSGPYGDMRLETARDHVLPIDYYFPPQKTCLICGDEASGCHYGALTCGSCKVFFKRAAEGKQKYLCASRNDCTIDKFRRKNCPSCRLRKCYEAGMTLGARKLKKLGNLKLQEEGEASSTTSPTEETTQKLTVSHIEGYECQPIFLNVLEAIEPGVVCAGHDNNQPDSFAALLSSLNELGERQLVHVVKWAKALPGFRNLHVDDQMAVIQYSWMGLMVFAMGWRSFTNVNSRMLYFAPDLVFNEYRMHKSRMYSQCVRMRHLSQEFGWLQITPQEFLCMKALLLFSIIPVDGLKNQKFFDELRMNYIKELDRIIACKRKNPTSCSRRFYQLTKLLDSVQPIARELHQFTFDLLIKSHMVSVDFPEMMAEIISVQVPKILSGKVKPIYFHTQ
# UniProt P35372, whole entry, looked up: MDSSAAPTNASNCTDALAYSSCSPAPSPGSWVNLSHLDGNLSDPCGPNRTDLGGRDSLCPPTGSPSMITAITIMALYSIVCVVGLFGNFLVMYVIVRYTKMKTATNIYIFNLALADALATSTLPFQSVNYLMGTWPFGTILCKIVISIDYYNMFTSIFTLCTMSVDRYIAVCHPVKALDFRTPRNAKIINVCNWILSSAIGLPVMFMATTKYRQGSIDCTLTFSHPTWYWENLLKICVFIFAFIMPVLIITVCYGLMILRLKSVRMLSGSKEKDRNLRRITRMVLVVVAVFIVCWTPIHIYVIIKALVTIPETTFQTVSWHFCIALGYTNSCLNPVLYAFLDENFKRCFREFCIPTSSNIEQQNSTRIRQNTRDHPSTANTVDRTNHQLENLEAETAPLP
# UniProt P16257, whole entry, looked up: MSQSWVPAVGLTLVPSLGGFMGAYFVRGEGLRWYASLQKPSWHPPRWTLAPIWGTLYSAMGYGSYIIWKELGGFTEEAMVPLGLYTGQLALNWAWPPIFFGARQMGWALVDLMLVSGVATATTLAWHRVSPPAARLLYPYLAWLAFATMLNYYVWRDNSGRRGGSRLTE
# UniProt P30536, whole entry, looked up: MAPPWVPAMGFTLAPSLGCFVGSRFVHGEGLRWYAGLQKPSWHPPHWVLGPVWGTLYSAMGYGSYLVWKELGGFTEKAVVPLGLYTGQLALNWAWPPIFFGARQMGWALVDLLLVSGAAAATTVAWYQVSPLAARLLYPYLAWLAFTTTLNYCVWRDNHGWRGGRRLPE
# UniProt P03372, whole entry, looked up: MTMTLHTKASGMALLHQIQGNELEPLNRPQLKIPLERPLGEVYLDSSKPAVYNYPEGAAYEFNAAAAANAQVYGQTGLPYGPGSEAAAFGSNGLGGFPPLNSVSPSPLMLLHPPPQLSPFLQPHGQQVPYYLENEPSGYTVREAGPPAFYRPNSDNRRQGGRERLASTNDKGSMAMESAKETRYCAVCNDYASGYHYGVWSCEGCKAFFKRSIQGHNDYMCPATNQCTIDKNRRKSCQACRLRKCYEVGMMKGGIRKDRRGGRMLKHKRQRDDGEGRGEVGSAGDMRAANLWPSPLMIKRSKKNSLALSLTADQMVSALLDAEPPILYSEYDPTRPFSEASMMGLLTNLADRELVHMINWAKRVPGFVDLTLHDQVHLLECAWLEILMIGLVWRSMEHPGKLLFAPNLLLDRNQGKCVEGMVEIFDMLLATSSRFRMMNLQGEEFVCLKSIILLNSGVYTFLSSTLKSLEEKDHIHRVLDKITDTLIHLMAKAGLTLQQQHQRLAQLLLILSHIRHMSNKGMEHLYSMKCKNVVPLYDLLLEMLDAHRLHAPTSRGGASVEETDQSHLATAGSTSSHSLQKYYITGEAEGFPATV
# UniProt Q92731, whole entry, looked up: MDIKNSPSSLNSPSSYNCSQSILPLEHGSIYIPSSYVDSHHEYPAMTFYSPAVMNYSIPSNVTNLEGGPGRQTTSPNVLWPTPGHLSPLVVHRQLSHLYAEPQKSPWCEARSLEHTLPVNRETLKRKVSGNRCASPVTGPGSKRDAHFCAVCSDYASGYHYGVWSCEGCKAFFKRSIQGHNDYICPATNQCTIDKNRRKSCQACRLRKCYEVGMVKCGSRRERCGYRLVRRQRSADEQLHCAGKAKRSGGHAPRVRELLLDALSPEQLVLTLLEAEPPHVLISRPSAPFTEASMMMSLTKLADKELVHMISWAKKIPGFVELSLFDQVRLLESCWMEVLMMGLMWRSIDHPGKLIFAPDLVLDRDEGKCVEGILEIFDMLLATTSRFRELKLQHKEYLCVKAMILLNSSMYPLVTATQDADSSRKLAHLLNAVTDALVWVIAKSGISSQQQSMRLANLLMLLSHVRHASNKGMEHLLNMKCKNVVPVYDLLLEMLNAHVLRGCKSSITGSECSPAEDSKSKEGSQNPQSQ
# UniProt P10276, whole entry, looked up: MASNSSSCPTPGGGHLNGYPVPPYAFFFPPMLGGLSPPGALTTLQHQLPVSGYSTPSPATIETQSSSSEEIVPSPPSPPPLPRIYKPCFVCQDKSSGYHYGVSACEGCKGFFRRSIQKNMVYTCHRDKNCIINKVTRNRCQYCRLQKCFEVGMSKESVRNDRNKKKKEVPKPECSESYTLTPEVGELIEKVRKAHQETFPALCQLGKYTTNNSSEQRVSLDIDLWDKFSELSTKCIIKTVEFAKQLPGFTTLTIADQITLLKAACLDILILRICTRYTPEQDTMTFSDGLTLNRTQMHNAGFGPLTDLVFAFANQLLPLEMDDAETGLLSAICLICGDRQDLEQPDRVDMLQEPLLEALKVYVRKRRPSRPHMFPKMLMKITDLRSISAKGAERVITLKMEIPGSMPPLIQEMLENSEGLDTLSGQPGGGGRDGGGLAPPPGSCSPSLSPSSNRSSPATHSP
# UniProt P08659, whole entry, looked up: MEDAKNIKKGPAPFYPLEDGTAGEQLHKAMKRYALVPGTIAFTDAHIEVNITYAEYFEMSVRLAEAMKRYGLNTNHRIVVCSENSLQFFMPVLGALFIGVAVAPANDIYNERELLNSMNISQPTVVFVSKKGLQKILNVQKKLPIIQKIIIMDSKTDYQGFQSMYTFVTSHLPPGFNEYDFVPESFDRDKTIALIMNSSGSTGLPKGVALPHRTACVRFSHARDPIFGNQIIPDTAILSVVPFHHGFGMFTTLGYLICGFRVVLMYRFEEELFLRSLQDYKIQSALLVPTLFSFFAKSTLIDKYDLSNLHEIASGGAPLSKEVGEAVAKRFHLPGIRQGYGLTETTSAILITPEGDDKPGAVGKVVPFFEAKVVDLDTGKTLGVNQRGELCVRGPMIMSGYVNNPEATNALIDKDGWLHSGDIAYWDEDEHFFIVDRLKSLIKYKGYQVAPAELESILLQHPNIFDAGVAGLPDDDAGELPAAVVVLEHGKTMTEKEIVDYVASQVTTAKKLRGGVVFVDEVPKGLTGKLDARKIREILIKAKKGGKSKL
# UniProt P04150: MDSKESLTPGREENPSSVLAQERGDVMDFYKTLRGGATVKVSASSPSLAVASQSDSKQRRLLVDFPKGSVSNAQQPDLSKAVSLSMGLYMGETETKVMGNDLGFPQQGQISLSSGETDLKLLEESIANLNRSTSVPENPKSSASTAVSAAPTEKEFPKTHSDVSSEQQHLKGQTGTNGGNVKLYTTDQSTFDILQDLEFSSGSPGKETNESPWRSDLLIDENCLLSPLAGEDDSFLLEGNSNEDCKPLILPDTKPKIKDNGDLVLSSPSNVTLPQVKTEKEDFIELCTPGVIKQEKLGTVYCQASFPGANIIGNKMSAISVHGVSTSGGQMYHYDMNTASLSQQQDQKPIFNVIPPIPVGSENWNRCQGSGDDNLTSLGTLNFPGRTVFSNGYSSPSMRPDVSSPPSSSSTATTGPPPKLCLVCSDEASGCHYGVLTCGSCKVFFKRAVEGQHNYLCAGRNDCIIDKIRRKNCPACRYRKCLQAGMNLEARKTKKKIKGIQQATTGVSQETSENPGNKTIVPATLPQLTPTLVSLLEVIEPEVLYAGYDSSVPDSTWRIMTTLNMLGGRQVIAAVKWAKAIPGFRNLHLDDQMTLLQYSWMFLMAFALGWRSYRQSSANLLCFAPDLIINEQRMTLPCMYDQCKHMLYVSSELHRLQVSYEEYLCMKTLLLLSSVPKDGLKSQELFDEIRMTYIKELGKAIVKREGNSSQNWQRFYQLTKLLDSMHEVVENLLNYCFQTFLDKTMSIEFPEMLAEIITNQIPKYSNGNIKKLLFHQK
# UniProt P08684, whole entry, looked up: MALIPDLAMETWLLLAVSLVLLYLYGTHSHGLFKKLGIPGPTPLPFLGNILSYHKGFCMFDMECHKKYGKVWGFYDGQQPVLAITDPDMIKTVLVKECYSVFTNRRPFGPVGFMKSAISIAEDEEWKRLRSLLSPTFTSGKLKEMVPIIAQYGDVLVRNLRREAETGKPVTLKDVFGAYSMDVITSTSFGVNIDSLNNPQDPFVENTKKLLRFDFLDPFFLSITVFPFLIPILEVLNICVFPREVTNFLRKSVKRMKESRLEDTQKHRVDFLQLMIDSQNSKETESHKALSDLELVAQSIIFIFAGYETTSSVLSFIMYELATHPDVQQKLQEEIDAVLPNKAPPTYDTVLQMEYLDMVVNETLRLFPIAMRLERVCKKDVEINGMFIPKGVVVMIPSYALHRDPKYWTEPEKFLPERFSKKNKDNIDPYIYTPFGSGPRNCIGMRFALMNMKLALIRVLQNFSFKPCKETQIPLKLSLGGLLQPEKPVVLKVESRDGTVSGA
# UniProt P33261, whole entry, looked up: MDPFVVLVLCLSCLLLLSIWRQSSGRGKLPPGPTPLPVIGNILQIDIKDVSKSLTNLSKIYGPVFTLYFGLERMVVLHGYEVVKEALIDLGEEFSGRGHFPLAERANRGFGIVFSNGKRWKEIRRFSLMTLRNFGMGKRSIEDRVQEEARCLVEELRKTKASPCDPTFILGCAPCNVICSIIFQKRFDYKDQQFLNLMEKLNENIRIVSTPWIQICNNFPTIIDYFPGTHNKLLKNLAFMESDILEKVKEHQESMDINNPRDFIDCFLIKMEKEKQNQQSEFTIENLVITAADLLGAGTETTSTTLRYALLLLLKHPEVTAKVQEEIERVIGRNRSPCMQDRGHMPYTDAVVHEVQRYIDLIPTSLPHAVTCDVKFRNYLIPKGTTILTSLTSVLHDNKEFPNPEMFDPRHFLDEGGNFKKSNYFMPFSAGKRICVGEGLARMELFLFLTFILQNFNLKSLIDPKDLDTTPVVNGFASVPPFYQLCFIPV
# Inconclusive means that the source gave no clear call. Such entries were picked first, then a sample of the others. For some assays here: Potencies beside an inconclusive call are fits to weak or partial responses and may not hold up. Activity calls are given as the source filed them. The calls were made as follows: active = hit-call score of the fitted dose curve at least 0.9, where 1 is the maximum; inconclusive = response in the unintended direction; inactive = score below 0.9.
# How the values were obtained:
# [1] = target: human Caspase 5 (CASP5), CASP5 (gene 838) (UniProt P51878); test: NVS_ENZ_hCASP5: NovaScreen (NVS) Enzymatic Assay for human Caspase 5 (CASP5) (AID 2283137)
# In short: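 Cell-free protease assay with bacterially expressed CASP5 and a fluorescent substrate, measured at 2 h. Values fitted relative to DMSO as baseline, from concentration-response series topping at 50 uM.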
# [2] = target: Nucleoli Translocation, AR (gene 367) (UniProt P10275); test: UPITT_HCI_U2OS_AR_TIF2_Nucleoli_Antagonist: University of Pittsburgh U2OS Androgen Receptor-Transcriptional Intermediary Factor 2 (AR-TIF2) Antagonism High Content Imaging Assay for Nucleoli Translocation (AID 2283997)
# In short: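 U2OS cells expressing RFP-tagged human AR and GFP-tagged TIF2 were imaged by high-content fluorescence microscopy for red AR signal in the nucleolar region. Compounds were screened at 20 uM final (0.2% DMSO), with activity fitted relative to DHT as baseline.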
# [3] = target: Nucleoli Translocation, AR (gene 367) (UniProt P10275); test: UPITT_HCI_U2OS_AR_TIF2_Nucleoli_Agonist: University of Pittsburgh U2OS Androgen Receptor-Transcriptional Intermediary Factor 2 (AR-TIF2) Agonism High Content Imaging Assay for Nucleoli Translocation (AID 2283998)
# In short: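 Readout is red (AR-RFP) fluorescence localized to nucleoli, measured by high-content imaging and analysed for increase relative to DMSO. Compound series spanned 0.195 to 50 uM final in 0.5% DMSO.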
# [4] = target: human Opioid Receptor Mu (Opiate Mu), OPRM1 (gene 4988) (UniProt P35372); test: NVS_GPCR_hOpiate_mu: NovaScreen (NVS) G Protein-Coupled Receptor Assay for human Opioid Receptor Mu (Opiate Mu) (AID 2283290);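 also: hits lower bound tracer signal versus DMSO meaning displacement of the ligand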
# In short: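 Cell-free radioligand binding to membranes from CHO cells expressing the receptor; bound tracer measured by filter-based scintillation counting 2.5 hours after dosing. Loss of signal versus DMSO baseline reflects displacement; primary screen at 25 uM in duplicate, actives followed up in concentration series.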
# [5] = target: rat Peripheral-type Benzodiazepine Receptor (PBR), Tspo (gene 24230) (UniProt P16257); test: NVS_MP_rPBR: NovaScreen (NVS) Membrane Protein Assay for rat Peripheral-type Benzodiazepine Receptor (PBR) (AID 2283335)
# In short: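 Radioligand displacement, rat kidney membrane prep, 1 h exposure, filter-based scintillation read; DMSO baseline, loss-of-signal scored. Primary screen at 25 uM in duplicate, actives followed up in concentration series.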
# [6] = target: human Peripheral-type Benzodiazepine Receptor (PBR), TSPO (gene 706) (UniProt P30536); test: NVS_MP_hPBR: NovaScreen (NVS) Membrane Protein Assay for human Peripheral-type Benzodiazepine Receptor (PBR) (AID 2283331);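 also: hits reduce radioligand binding relative to DMSO baseline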
# In short: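 Human colonic cell membranes were incubated with test chemical for 1 hour; radioligand binding was measured by filter-based scintillation counting. Primary screen ran in duplicate at 25 uM, with actives followed in concentration series; loss of signal versus DMSO baseline.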
# [7] = target: Estrogen receptor (Homo sapiens) + Estrogen receptor beta (Homo sapiens) (UniProt P03372+Q92731); test: OT_ER_ERaERb_1440: Odyssey Thera (OT) 24-hour HEK293T Protein-Complementation Assay for Estrogen Receptor-alpha/-beta Homodimer (AID 2283356);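 also: heteromer of ER alpha and ER beta binding domains; hits raise reporter fluorescence and both agonists and antagonists give an increase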
# In short: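 Stable HEK293T PCA line, ERα LBD 310-547 + ERβ LBD 263-489 fused to reporter fragments; 24 h treatment; fluorescence read by laser scanning cytometry; positive fitting direction relative to DMSO.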
# [8] = target: Retinoic acid receptor alpha (Homo sapiens) (UniProt P10276); test: NVS_NR_hRAR_Antagonist: NovaScreen (NVS) Nuclear Receptor Binding Assay for human Retinoic Acid Alpha Receptor Antagonism (RAR) (AID 2283358)
# In short: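 Cell-free TR-FRET binding assay on extracted receptor protein, run in antagonist mode; signal read 2 hours after chemical dosing. Loss of signal was fitted relative to DMSO baseline. Screened at 25 uM in duplicate, actives followed up in concentration series.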
# [9] = CCTE_Simmons_CellTiterGLO_HEK293T: Viability Assessment in CCTE's Assays for Thyroperoxidase (TPO) Inhibition, Simmons Lab (AID 2283665);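 as to AC50: cells exposed to compound for 24 h before readout; actives reduce ATP signal below DMSO vehicle meaning cytotoxicity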
# In short: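 Cytotoxicity counter-screen: human HEK293T cells in low-serum (1% FBS) medium receive test chemical, 5 nM to 87.5 uM final, for 24 h; ATP is quantified by luciferase luminescence.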
# [10] = target: Luciferin 4-monooxygenase (Photinus pyralis) (UniProt P08659); test: CCTE_Simmons_QuantiLum_inhib_2: CCTE's Firefly Luciferase Inhibition Assay, Simmons Lab (AID 2283767);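 also: potency for inhibitors that lower luciferase luminescence relative to DMSO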
# In short: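 Counter-screen for nonspecific enzyme inhibition: purified firefly luciferase incubated 30 min at 37C with chemicals up to 87.5 uM final, then luminescence measured after luciferin/dATP injection; activity fitted against DMSO baseline.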
# [11] = target: rat Glutamate, AMPA Site (AMPA), Gria1 (gene 50592) (UniProt P19490); test: NVS_LGIC_rAMPA: NovaScreen (NVS) Ligand-Gated Ion Channel Assay for rat Glutamate, AMPA Site (AMPA) (AID 2283324)
# In short: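 Rat forebrain membranes; radioligand binding read 1 h after dosing by filtration and scintillation counting. Duplicate single-point screen at 25 uM, then concentration-response to 50 uM for threshold hits (e.g. 30% inhibition); loss of signal vs DMSO.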
# [12] = LTEA_HepaRG_LDH_cytotoxicity: Cytotoxicity Assessment in the Life Technologies and Expression Analysis (LTEA) Assay (AID 2283563);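 as to AC50: LDH activity released into spent culture medium as a marker of cell death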
# In short: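 Cells were thawed and plated for 48 h. Medium was then replaced with serum-free induction medium. Chemicals (8 half-log points, maximum 100 uM, 0.5% DMSO) were added in duplicate for 48 h, after which spent medium was assayed for LDH.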
# [13] = target: Glucocorticoid receptor (Homo sapiens) (UniProt P04150); test: NVS_NR_hGR: NovaScreen (NVS) Nuclear Receptor Binding Assay for human Glucocorticoid Receptor (GR) (AID 2283363)
# In short: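 Cell-free radioligand binding with extracted receptor protein, read by filter-based scintillation counting 16 hours after dosing. Loss of specific signal versus DMSO baseline was scored. Primary screen ran in duplicate at 25 uM; actives were followed up in concentration series.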
# [14] = target: AR (gene 367) (UniProt P10275); test: ACEA_AR_agonist_80hr: ACEA Biosciences xCELLigence Real-Time Cell Analysis on Androgen Receptor Agonism for Proliferation (AID 2283783);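 also: hits increase impedance growth signal above DMSO baseline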
# In short: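 22Rv1 human prostate cancer cells were seeded after preconditioning in assay medium and monitored overnight, then dosed in an eight-point 1:4 dilution series from 100 uM (≤0.5% DMSO). Impedance-based growth was read at 80 h, gain-of-signal versus DMSO.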
# [15] = target: Estrogen receptor beta (Homo sapiens) (UniProt Q92731); test: OT_ER_ERbERb_0480: Odyssey Thera (OT) 8-hour HEK293T Protein-Complementation Assay for Estrogen Receptor-beta/-beta Homodimer (AID 2283357);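 also: active means signal gain over DMSO baseline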
# In short: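 Readout: increase in mean fluorescence intensity (nucleus for agonists; nucleus plus cytoplasm for antagonists) relative to DMSO, from a reporter-fragment complementation of human ER-beta LBD homodimer in HEK293T cells dosed 8 hours.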
# [16] = target: Cytochrome P450 3A4 (Homo sapiens) (UniProt P08684); test: NVS_ADME_hCYP3A4: NovaScreen (NVS) CYP450-related Enzyme Activity (ADME) Assay for human CYP3A4 (AID 2283110)
# In short: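 Cell-free assay using insect-cell-expressed human CYP3A4 with a fluorogenic substrate; fluorescence intensity was read 0.33 hour after dosing. Loss of signal relative to acetonitrile vehicle indicated inhibition. Primary single-concentration screen at 10 uM, in duplicate, then concentration series.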
# [17] = read-out: organic anion transporter (SLCO1B1), SLCO1B1 (gene 10599); test: CLD_SLCO1B1_6hr: CellzDirect (CLD) Gene Expression Assay for organic anion transporter (SLCO1B1) at 6 hours (AID 2283668);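 also: active means mRNA induction above DMSO baseline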
# In short: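 Primary human hepatocytes dosed daily with test chemicals (multiple concentrations) in 0.2% DMSO vehicle; harvested at 6 h. SLCO1B1 mRNA quantified by qNPA chemiluminescence, fitted as gain-of-signal versus DMSO; cytotoxicity from phase-contrast morphology flagged alongside.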
# [18] = CLD_ACTIN_6hr: CellzDirect (CLD) Gene Expression Assay for Baseline Control (Actin) at 6 hours (AID 2283676);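 as to outcome: active means increased actin mRNA relative to DMSO vehicle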
# In short: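 Primary human hepatocytes dosed with fresh chemical solutions (vehicle 0.2% DMSO), harvested at 6 h. Actin mRNA quantified by quantitative nuclease protection assay with chemiluminescent read-out, as background control relative to DMSO.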
# [19] = read-out: Cytochrome P450 2C19 (Homo sapiens) (UniProt P33261); test: CLD_CYP2C19_6hr: CellzDirect (CLD) Gene Expression Assay for xenobiotic metabolism (CYP2C19) at 6 hours (AID 2283678)
# In short: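 Primary human hepatocytes from two donor preparations were dosed daily, with 0.2% DMSO as vehicle, and harvested 6 h after dosing. CYP2C19 mRNA induction was measured by qNPA chemiluminescence and fitted as gain of signal against DMSO.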
# [20] = Tanguay_ZF_120hpf_CFIN_legacy: (Legacy) Oregon State University Tanguay Lab 120 Hour Post-fertilization zebrafish Assay for Caudal Fin Malformation (AID 2283649)
# In short: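 Binary presence or absence of caudal fin malformation at 120 hpf, read by brightfield microscopy, with DMSO as baseline. Larvae came from 5D wild-type embryos exposed statically from 6 hpf at 28C after pronase dechorionation.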
compound,measurement,setting,value
O=[N+]([O-])c1cc(N(CCO)CCO)ccc1NCCO,AC50,[1],active: 8.66 µM
CCC[Si](OC)(OC)OC,AC50,[2],inconclusive: 50 µM
same,AC50,[3],inconclusive: 50 µM
Cc1ccc(N=Nc2c(O)ccc3ccccc23)c(C)c1,AC50,[4],inconclusive: 0.623 µM
same,AC50,[5],inconclusive: 12.5 µM
CC(Cc1ccc(O)c(O)c1)C(C)Cc1ccc(O)c(O)c1 (stereo unspecified),AC50,[6],inconclusive: 45.9 µM
same,AC50,[7],active: 11.9 µM
same,AC50,[8],active: 11.7 µM
same,AC50,[9],active: 87 µM
same,AC50,[10],active: 16.1 µM
CCCCCOC(C)=O,AC50,[11],inconclusive: 25 µM
same,AC50,[12],inconclusive: 0.00316 µM
c1ccc2c(c1)-c1ccc3ccc4cccc5cc-2c1c3c45,outcome,[13],inactive
[Co],AC50,[14],inconclusive: 0.795 µM
CC(C)(CO)CO,AC50,[15],inconclusive: 50 µM
same,outcome,[14],inactive
same,AC50,[2],inconclusive: 50 µM
C=CC(=O)OCC(CO)(COC(=O)C=C)COC(=O)C=C,AC50,[16],inconclusive: 0.808 µM
CCC(O)=C1C(=O)CC(C(=O)O)CC1=O (stereo unspecified),outcome,[1],inactive
same,outcome,[17],inactive
same,AC50,[18],inconclusive: 20 µM
same,AC50,[19],inconclusive: 20 µM
CCC(C)c1ccccc1 (stereo unspecified),outcome,[3],inactive
CCCN(CCC)c1c([N+](=O)[O-])cc(C(F)(F)F)c(N)c1[N+](=O)[O-],outcome,[8],inactive
same,outcome,[17],inactive
same,outcome,[18],inactive
same,AC50,[19],inconclusive: 20 µM
CCOC(=O)C1=NOC(c2ccccc2)(c2ccccc2)C1,AC50,[6],active: 8.19 µM
O=C(c1ccccc1)c1ccc(O)c(O)c1O,outcome,[9],inactive
Cc1ncc([C@@H](CCCCCCc2ccc3c(n2)NCCC3)CC(=O)O)cn1,outcome,[12],inactive
COc1cc2c(c(OC)c1OC)-c1ccc(OC)c(=O)cc1[C@@H](NC(C)=O)CC2,outcome,[20],inactive
CC=C(C)C(C)=O,AC50,[4],inconclusive: 25 µM
CCCCCCCCCC[N+](C)(CCCCCCCCCC)CCC[Si](OC)(OC)OC,AC50,[15],inconclusive: 50 µM
same,outcome,[13],inactive
same,AC50,[10],inconclusive: 8.24 µM
COC(=O)c1cccc(C)c1S(=O)(=O)NC(=O)Nc1nc(OCC(F)(F)F)nc(N(C)C)n1,AC50,[11],inconclusive: 0.0779 µM
O=C1OC2(c3ccc(O)cc3Oc3cc(O)ccc32)c2ccccc21,AC50,[5],inconclusive: 0.0894 µM
same,AC50,[7],inconclusive: 0.138 µM
CC[C@H](C)C(=O)O[C@H]1C[C@H](O)C=C2C=C[C@H](C)[C@H](CC[C@@H](O)C[C@@H](O)CC(=O)O)[C@H]21,AC50,[16],inconclusive: 10 µM
same,outcome,[20],inactive
OCCNCCO,outcome,[20],inactive

# Three records drawn at random from those above:
compound,measurement,setting,value
CCC(O)=C1C(=O)CC(C(=O)O)CC1=O (stereo unspecified),AC50,[18],inconclusive: 20 µM
O=C1OC2(c3ccc(O)cc3Oc3cc(O)ccc32)c2ccccc21,AC50,[5],inconclusive: 0.0894 µM
CC(Cc1ccc(O)c(O)c1)C(C)Cc1ccc(O)c(O)c1 (stereo unspecified),AC50,[6],inconclusive: 45.9 µM
